Measured values taken from publication PMC10085937 (Clinical Pharmacokinetics, 2023).

Type: in vivo, human
Conditions: atorvastatin 10 mg with multiple-dose cilofexor

- Atorvastatin AUC compared with atorvastatin alone: 139%
Structure (SMILES): CC(C)c1c(C(=O)Nc2ccccc2)c(-c2ccccc2)c(-c2ccc(F)cc2)n1CC[C@@H](O)C[C@@H](O)CC(=O)O [atorvastatin]
